The record followed here is US20050042227A1.

Sequences of proteins named here, by UniProt entry; tags and fusion partners are left off. A change or cut given only in a name is not applied to a line headed by its entry. Residues count along the entry.
UniProt Q07954, residues 806-1183: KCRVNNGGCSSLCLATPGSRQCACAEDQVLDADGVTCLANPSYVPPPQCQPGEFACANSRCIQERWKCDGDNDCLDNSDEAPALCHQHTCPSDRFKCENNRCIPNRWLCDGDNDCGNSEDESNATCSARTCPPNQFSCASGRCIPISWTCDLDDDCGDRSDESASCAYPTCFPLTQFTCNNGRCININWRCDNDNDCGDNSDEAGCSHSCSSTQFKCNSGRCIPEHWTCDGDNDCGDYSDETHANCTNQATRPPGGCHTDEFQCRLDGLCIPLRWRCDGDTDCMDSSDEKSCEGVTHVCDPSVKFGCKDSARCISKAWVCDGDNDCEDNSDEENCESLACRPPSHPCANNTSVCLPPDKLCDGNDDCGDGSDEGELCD
UniProt P30533: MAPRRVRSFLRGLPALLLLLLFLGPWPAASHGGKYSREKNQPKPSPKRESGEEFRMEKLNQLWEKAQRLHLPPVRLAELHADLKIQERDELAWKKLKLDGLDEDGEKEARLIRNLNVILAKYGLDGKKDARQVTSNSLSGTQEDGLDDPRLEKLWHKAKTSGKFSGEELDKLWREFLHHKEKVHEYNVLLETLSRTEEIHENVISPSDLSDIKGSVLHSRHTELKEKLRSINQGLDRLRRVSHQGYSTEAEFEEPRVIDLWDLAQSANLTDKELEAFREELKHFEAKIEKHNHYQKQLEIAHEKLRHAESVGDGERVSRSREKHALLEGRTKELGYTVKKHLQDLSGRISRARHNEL

No constants are given. Whether binding was seen depends on the method and setting. Some entries that bind do so weakly or less than the wild type.

For experiment [1], the target named is sLRP2, the entire second ligand-binding domain of human LRP1 (human) (UniProt Q07954). In words: ligand blot, sLRP2 spotted on membrane, detection with anti-RAP antibody.
For experiment [2] the target is unchanged. In words: dot blot, LRP binding domain 2 on PVDF, overlay, antibody and chemiluminescent detection.

In the case of “receptor-associated protein (RAP) (from UniProt P30533 35-354) (ligand)”, the binding entry in experiment [1] and in experiment [2] was “binds” each time.
